Results: PubChem BioAssay AID2685 (National Center for Advancing Translational Sciences (NCATS), 2010)
Some of the results follow. These are further read-outs of the screen, such as a control signal, another cell line or another target. No call is given for them. The list favours compounds with an active or inconclusive main result. The note in brackets gives the kind of curve behind each potency; many fits are weak.

Experiment: qHTS Assay for Lipid Storage Modulators in Drosophila S3 Cells;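 for cell number change: cells counted by Cell Tracker Red CMTPX staining in the red channel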
Settings: BODIPY lipid droplet fluorescence, 18-24 h; for cell number change: measured here: cell count max response, cells fed with added oleic acid
In short: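 Drosophila S3 cells loaded with oleic acid (400 uM, as added) and compounds at several concentrations; lipid droplets imaged by 488-nm laser-scanning cytometry, 500–530 nm intensity and object ratio to cell channel. Percent activity normalized to 20 uM Triacsin C.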

[1] = measured here: cell number channel AC50, cells fed with added oleic acid
[2] = measured here: lipid fluorescence (Fed channel) AC50, cells fed with added oleic acid

Row | Structure (SMILES) | cell number change | AC50 [1] | AC50 [2]
1 | CC(NO)/C(=N\O)c1cccs1 (configuration not stated) | -11.4% | 5.8 µM [falling, single point] | 3.26 µM [falling, full curve]
2 | C/C(=N\NC(=O)CNC(=O)c1ccc2c(c1)OCO2)c1ccco1 | -10.9% |  | 3.66 µM [falling, partial curve]
3 | CC(C)CNC(=S)N1CCN(c2nc(-c3ccc(Cl)cc3)cs2)CC1 | 8.55% |  | 
4 | CC(=O)n1cc(Nc2ccc([N+](=O)[O-])cc2)c2ccccc21 | 14.9% | 0.00517 µM [rising, full curve, poor fit] | 
5 | O=C(Nc1ccnn1C1CCN(C(=O)c2ccc(Cl)c(F)c2)CC1)C1CCOC1 (configuration not stated) | 17.9% |  | 
6 | Cc1ccc(C2CC(c3cccs3)=NN2C(=O)CSc2nc3ccccc3o2)cc1 (configuration not stated) | -19.6% |  | 18.4 µM [falling, partial curve]
7 | O=C1CC2(CCN(C(=O)C3CC(=O)N(c4ccc(F)cc4)C3)CC2)Oc2ccccc21 (configuration not stated) | -26% |  | 0.13 µM [falling, full curve, poor fit]
8 | COc1ccc(CN=C2NC(=O)CC(C(=O)Nc3cc(C)cc(C)c3)S2)cc1 (configuration not stated) | -20.1% | 0.82 µM [falling, full curve, poor fit] | 
9 | O=C(N/N=C/c1ccccc1O)C1CCCC1 | -15.3% |  | 
10 | CNc1nc2ccccc2n1N | -7.72% |  | 29.1 µM [rising, single point]
11 | Cc1cc(Cn2nc(C(=O)NCc3cccs3)cc2-c2ccccc2)on1 | 19% |  | 6.51 µM [rising, partial curve, poor fit]
12 | Cn1cc(CC(=O)NCCCN2CCCC2=O)c2ccccc21 |  |  | 2.06 µM [rising, single point]
13 | Cc1nn(C)cc1S(=O)(=O)NCc1ccccc1Cl | -18.8% |  | 6.51 µM [rising, partial curve, poor fit]
14 | Cc1ccc(C(=O)NCC(=O)N2CCCCCCC2)cc1 | -4.64% |  | 1.46 µM [falling, full curve]
15 | CCCCn1ccnc1C | 14.5% |  | 6.51 µM [falling, single point]
16 | c1ccc(Nc2nc(N3CCCC3)nc(N3CCCC3)n2)cc1 | 12.9% |  | 5.8 µM [rising, single point]
17 | Cc1cccc(NC(=O)CN(c2ccc(C(C)C)cc2)S(=O)(=O)c2c(C)nn(C)c2C)n1 | -18.3% | 2.31 µM [falling, single point] | 1.84 µM [rising, partial curve]
18 | O=C(CS(=O)(=O)c1ccc(Cl)cc1)Nc1nnc(-c2cccs2)o1 | -11.9% |  | 2.31 µM [falling, full curve]
19 | Cc1cc(C)c[n+](C2=C([O-])c3ccccc3C(=O)/C2=N\S(=O)(=O)c2cccs2)c1 | -15.3% |  | 3.66 µM [falling, single point]
20 | O=C(COc1cccc2ccccc12)Nc1cc(S(=O)(=O)N2CCOCC2)ccc1N1CCOCC1 | -63.9% |  | 

Looked up above.
`Cc1cc(C)c[n+](C2=C([O-])c3ccccc3C(=O)/C2=N\S(=O)(=O)c2cccs2)c1` – cell number change: -15.3%
`COc1ccc(CN=C2NC(=O)CC(C(=O)Nc3cc(C)cc(C)c3)S2)cc1` (configuration not stated) – cell number change: -20.1%

(list continues)

Row | Structure (SMILES) | cell number change | AC50 [1] | AC50 [2]
21 | CSc1c(SCc2ccccc2)cnn(Cc2ccccc2)c1=O | -3.69% |  | 0.00517 µM [rising, full curve, poor fit]
22 | COC(=O)CSC1=C(C#N)C(=O)NC(c2ccccc2)S1 (configuration not stated) | -118% | 6.51 µM [falling, full curve] | 
23 | CCCOc1ccc(-c2c(C(=O)N/N=C(\C)c3cccnc3)nnn2-c2nonc2N)cc1 | -0.59% | 5.8 µM [falling, partial curve, poor fit] | 29.1 µM [falling, partial curve]
24 | c1ccc(Nc2nnc(SCc3cccc4ccccc34)s2)cc1 | 70.8% | 25.9 µM [rising, single point] | 1.3 µM [rising, full curve]
25 | CCOC(=O)c1c(CN(C)C)n(-c2ccccc2)c2cc(Br)c(OC)cc12 | 1.3% |  | 2.91 µM [falling, full curve]
26 | Cc1cc(=O)oc2c3c(cc(OCC(=O)N[C@H](C(=O)O)c4ccccc4)c12)OC(C)(C)CC3 | 28.2% |  | 
27 | CC(NC(=O)c1ccc(-c2ccccc2)cc1)C(c1ccccc1)N1CCOCC1 (configuration not stated) | -8.88% |  | 29.1 µM [falling, single point]
28 | COc1cccc(OCC(=O)Nc2ccc(OC)c(OC)c2)c1 | -24.3% |  | 6.51 µM [rising, single point]
29 | Cc1ccc(S(=O)(=O)/N=C/N(C)C)cc1 | -8.4% |  | 
30 | COc1ccc(-c2cc(NCCc3ccncc3)n3ncnc3n2)cc1 | 22.3% |  | 0.461 µM [rising, full curve]
31 | CN(C)c1ccc(C2/C(=C(/O)c3ccccc3)C(=O)C(=O)N2CCCC(=O)O)cc1 (configuration not stated) | -20.8% |  | 29.1 µM [falling, single point]
32 | Cc1ccc(Nc2nc3ccccc3c(=O)s2)cc1 | 24% |  | 0.82 µM [falling, single point]
33 | COc1ccc(CN(C)C(=O)CCc2ccc(S(=O)(=O)N3CCCCCC3)cc2)c(OC)c1 | -0.615% |  | 13 µM [falling, partial curve, poor fit]
34 | Cc1cc(C)c(C#N)c(SCc2ccccc2[N+](=O)[O-])n1 | 22.7% |  | 7.31 µM [rising, partial curve]
35 | Cc1ccc(C=Nc2ccccc2C(N)=O)cc1 | 2.33% |  | 
36 | CSCCC(NC(=O)c1ccc([N+](=O)[O-])cc1Cl)C(=O)OCC(=O)NCC(F)(F)F (configuration not stated) | 6.87% |  | 29.1 µM [rising, single point]
37 | Cc1nn(-c2ccccc2)c(Cl)c1/C=N/NC(=O)c1[nH]ncc1Br | -14.6% |  | 20.6 µM [falling, partial curve]
38 | CCOC(=O)N1CCN(Cc2nc(N)nc(Nc3ccccc3C)n2)CC1 | 56% | 4.11 µM [rising, full curve] | 9.2 µM [rising, partial curve, poor fit]
39 | Cc1nc2cc(C(F)(F)F)ccc2n1CCNc1nc(-c2ccc(F)cc2)cs1 | -13.8% |  | 6.51 µM [rising, single point]
40 | O=C(CN1CC[n+]2c(-c3cccs3)csc21)c1ccc(-c2ccccc2)cc1 | -13.1% |  | 29.1 µM [falling, partial curve, poor fit]
